This is an account of results in patent EP4703382A1.

Chains of the proteins cited; added tags and fusions are not shown. Lines headed by an entry give the natural chain unless they say otherwise; changes in a name come on top.
UniProt P43431: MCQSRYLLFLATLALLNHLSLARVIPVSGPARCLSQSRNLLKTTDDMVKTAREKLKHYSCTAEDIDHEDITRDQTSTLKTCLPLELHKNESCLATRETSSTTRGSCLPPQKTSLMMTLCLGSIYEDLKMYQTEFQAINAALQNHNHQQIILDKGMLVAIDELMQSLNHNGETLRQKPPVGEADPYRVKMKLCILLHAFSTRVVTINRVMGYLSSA

Experiment [1] addresses human PDL1-Fc fusion protein (human). Description: BLI (ForteBIO Octet QKe), PDL1-Fc loaded. On the technique in general: Biolayer interferometry detects binding as a change in optical thickness at a sensor tip.
Experiment [2] has the same target. Kind of experiment: ELISA, human PDL1-Fc coated.

These are yes or no findings as the source states them, for the method shown. Some results given as binding are weak or reduced against the parent protein; the word gives no strength.

In the case of “Fusion 3 (from UniProt P43431 23-215; P43432 23-335)”, the binding result in experiment [1] and in experiment [2] was “binds” throughout.
With “Fusion 4 (from UniProt P43431 23-215; P43432 23-335)”, the binding result in experiment [1] and in experiment [2] was “binds” each time.
With “Fusion 5 (from UniProt P43431 23-215; P43432 23-335)”, the binding result in experiment [1] and in experiment [2] was “binds” each time.
